Experimental data: PubChem BioAssay AID1259254 (NCATS, 2017)

- Aim: 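Genome-wide screen for genes that prevent DNA re-replication in cancer cells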 (primary screen)
- Cells: human HCT116 colorectal cancer cells
- Knock-down reagent: single siRNA against human genes
- Duration: 3 days
- Measurement: 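Imaged Hoechst DNA stain sorts each cell into a cycle phase by DNA amount; per plate, G2 fraction set to 0% for non-targeting and 100% for GMNN siRNA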
- Scale: G2 robust z-score and G2 cells, % of GMNN control: higher = more G2 cells, more excess DNA replication; raw share of cells in G2: higher = larger share of cells with G2 DNA content
- Call rule: 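An siRNA counts as active if its G2 robust z-score lies at least 5 MADs above the screen median; here such calls match roughly 38% of GMNN control or more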
This is a random part of about 59,000 deposited reagents. About 1,550 of them (2.6%) were called active. 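G2 share is only a proxy for re-replication; each gene was hit by three separate siRNAs, and active genes were retested.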 The raw values are shown without normalisation. The numbers tell different reagents against one gene apart. Reagent sequences are not shown. The record does not give: the amount of reagent.

gene knocked down | siRNA no. | G2 robust z-score | G2 cells, % of GMNN control | raw share of cells in G2 (%) | call
NSMF | 1 | -0.314 | 0.758 | 4.7 | inactive
NSMF | 2 | 1.33 | 12.3 | 9.27 | inactive
NSMF | 3 | 2.32 | 19.3 | 10 | inactive
CDC42BPB | 1 | -0.0681 | 2.49 | 6.36 | inactive
CDC42BPB | 2 | 0.0564 | 3.36 | 6.41 | inactive
CDC42BPB | 3 | 4.57 | 35.1 | 14.9 | inactive
HLA-G | 1 | 1.12 | 10.9 | 7.78 | inactive
HLA-G | 2 | 0.0104 | 3.04 | 6.27 | inactive
HLA-G | 3 | 0.828 | 8.79 | 6.3 | inactive
OAT | 1 | 2.12 | 17.9 | 12 | inactive
OAT | 2 | 3.07 | 24.6 | 14.7 | inactive
OAT | 3 | -0.84 | -2.94 | 2.2 | inactive
EPHX4 | 1 | 2.5 | 20.5 | 12.2 | inactive
EPHX4 | 2 | -0.97 | -3.85 | 3.08 | inactive
EPHX4 | 3 | 0.575 | 7.01 | 9.3 | inactive
PLPP4 | 1 | 0.459 | 6.2 | 6.17 | inactive
PLPP4 | 2 | 2.32 | 19.3 | 11.1 | inactive
PLPP4 | 3 | -0.681 | -1.82 | 2.95 | inactive
YY2 | 1 | 0.252 | 4.74 | 4.72 | inactive
YY2 | 2 | -0.877 | -3.2 | 2.05 | inactive
YY2 | 3 | 7 | 52.2 | 21.8 | active
PANK2 | 1 | 0.927 | 9.49 | 8.54 | inactive
PANK2 | 2 | 0.193 | 4.33 | 6.76 | inactive
PANK2 | 3 | 3.04 | 24.3 | 11.5 | inactive

An excerpt from above, limited to “G2 cells, % of GMNN control”:
HLA-G #1	10.9
HLA-G #2	3.04
HLA-G #3	8.79
OAT #1	17.9
OAT #2	24.6
OAT #3	-2.94
EPHX4 #1	20.5
EPHX4 #2	-3.85

Additional records:
gene knocked down | siRNA no. | G2 robust z-score | G2 cells, % of GMNN control | raw share of cells in G2 (%) | call
CCDC28A | 1 | 0.344 | 5.39 | 6.44 | inactive
CCDC28A | 2 | 1.26 | 11.8 | 9.05 | inactive
CCDC28A | 3 | 0.416 | 5.9 | 5.36 | inactive
MFAP2 | 1 | 0.131 | 3.89 | 6.63 | inactive
MFAP2 | 2 | 0.481 | 6.35 | 6.73 | inactive
MFAP2 | 3 | 2.11 | 17.8 | 9.79 | inactive
GPR18 | 1 | -0.762 | -2.39 | 3.68 | inactive
GPR18 | 2 | 1.95 | 16.7 | 11.8 | inactive
GPR18 | 3 | -0.568 | -1.03 | 2.95 | inactive
ZNF780A | 1 | 0.774 | 8.41 | 5.99 | inactive
ZNF780A | 2 | 0.486 | 6.38 | 5.38 | inactive
ZNF780A | 3 | -0.217 | 1.44 | 4.03 | inactive
BEX5 | 1 | -0.415 | 0.0452 | 4 | inactive
BEX5 | 2 | 0.358 | 5.48 | 5.66 | inactive
BEX5 | 3 | -0.449 | -0.191 | 4.11 | inactive
FABP12 | 1 | 4.64 | 35.6 | 17.2 | inactive
FABP12 | 2 | 0.501 | 6.49 | 5.63 | inactive
FABP12 | 3 | -1.1 | -4.77 | 1.53 | inactive
CSNK1A1L | 1 | 0.0346 | 3.21 | 6.59 | inactive
CSNK1A1L | 2 | 0.14 | 3.96 | 6.63 | inactive
CSNK1A1L | 3 | 0.203 | 4.39 | 5.09 | inactive
XKR3 | 1 | 0.856 | 8.99 | 6.84 | inactive
XKR3 | 2 | -0.271 | 1.06 | 3.24 | inactive
XKR3 | 3 | -0.339 | 0.58 | 3.27 | inactive
EFHC1 | 1 | -0.168 | 1.79 | 4.81 | inactive
EFHC1 | 2 | -0.05 | 2.62 | 4.11 | inactive
EFHC1 | 3 | 1.02 | 10.2 | 4.79 | inactive
GARS1 | 1 | 0.443 | 6.08 | 7.45 | inactive
GARS1 | 2 | -0.604 | -1.28 | 4.78 | inactive
GARS1 | 3 | -0.0603 | 2.54 | 4.56 | inactive
SDHAF2 | 1 | -0.287 | 0.948 | 3.94 | inactive
SDHAF2 | 2 | 0.608 | 7.25 | 7.32 | inactive
SDHAF2 | 3 | 1.83 | 15.9 | 8.44 | inactive
FBXO42 | 1 | 0.506 | 6.53 | 5.94 | inactive
FBXO42 | 2 | -0.816 | -2.77 | 3.1 | inactive
FBXO42 | 3 | -0.891 | -3.3 | 2.1 | inactive
PCDHA9 | 1 | -0.286 | 0.958 | 5.56 | inactive
PCDHA9 | 2 | -0.654 | -1.63 | 2.64 | inactive
PCDHA9 | 3 | -0.328 | 0.657 | 5.02 | inactive
DHRS2 | 1 | 0.16 | 4.09 | 5.16 | inactive
DHRS2 | 2 | 2.63 | 21.5 | 15 | inactive
DHRS2 | 3 | 2.42 | 20 | 14.4 | inactive
AP2A2 | 1 | -1.1 | -4.77 | 3.1 | inactive
AP2A2 | 2 | -1.61 | -8.33 | 2.11 | inactive
AP2A2 | 3 | -0.879 | -3.22 | 2.79 | inactive
